Test results taken from US20150344583A1.
Results are given in words; binding and its absence hold for the method and conditions named. Some binding calls cover weakened binding; strength is not graded here.

By UniProt entry, the sequences of proteins in these tests, tags left out. Where a name states a change or a piece, a line headed by the entry shows the natural chain unless it says otherwise.
UniProt Q02223: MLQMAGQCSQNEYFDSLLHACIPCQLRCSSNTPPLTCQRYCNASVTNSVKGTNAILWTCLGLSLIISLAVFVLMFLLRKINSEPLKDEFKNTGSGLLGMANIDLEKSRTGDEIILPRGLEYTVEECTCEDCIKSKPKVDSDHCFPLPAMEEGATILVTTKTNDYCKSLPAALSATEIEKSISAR

Assays:
[1] = molecular target: cynomolgus (Macaca fascicularis) BCMA on cells (cynomolgus (Macaca fascicularis)); experiment: FACS
[2] = molecular target: clipped form of Sumo-huBCMA, SEQ ID NO:354 (human); experiment: SEC chromatograms
[3] = molecular target: clipped form of Sumo-huBCMA, SEQ ID NO:355 (human); experiment: SEC chromatograms
[4] = molecular target: clipped form of Sumo-huBCMA, SEQ ID NO:356 (human); experiment: SEC chromatograms
[5] = molecular target: rhuBCMA fusion protein (6xHis::Sumo::huBCMA(aa 5-51)::GGS::G3::Avi) (human); experiment: SEC chromatograms
[6] = molecular target: clipped form of Sumo-huBCMA, SEQ ID NO:354 (human); experiment: LC/MS chromatogram
[7] = molecular target: clipped form of Sumo-huBCMA, SEQ ID NO:356 (human); experiment: LC/MS chromatogram
[8] = molecular target: clipped form of Sumo-huBCMA, SEQ ID NO:357 (human); experiment: LC/MS chromatogram
[9] = molecular target: clipped form of Sumo-huBCMA, SEQ ID NO:358 (human); experiment: LC/MS chromatogram
[10] = molecular target: human BCMA (huBCMA) on cells (human) (UniProt Q02223); experiment: FACS on H929 cells
[11] = molecular target: cynomolgus (Macaca fascicularis) BCMA on cells (cynomolgus (Macaca fascicularis)); experiment: FACS screening, second campaign
[12] = molecular target: clipped form of Sumo-huBCMA, SEQ ID NO:354 (human); experiment: SEC of antibody and Sumo-BCMA mixtures
[13] = molecular target: clipped form of Sumo-huBCMA, SEQ ID NO:355 (human); experiment: SEC of antibody and Sumo-BCMA mixtures
[14] = molecular target: clipped form of Sumo-huBCMA, SEQ ID NO:356 (human); experiment: SEC of antibody and Sumo-BCMA mixtures
[15] = molecular target: rhuBCMA fusion protein (6xHis::Sumo::huBCMA(aa 5-51)::GGS::G3::Avi) (human); experiment: SEC of antibody and Sumo-BCMA mixtures
[16] = molecular target: human BCMA (huBCMA) on cells (human) (UniProt Q02223); experiment: FMAT and FACS screening, second campaign
[17] = molecular target: clipped form of Sumo-huBCMA, SEQ ID NO:354 (human); experiment: SEC, then LC/MS of the antibody-bound peak
[18] = molecular target: clipped form of Sumo-huBCMA, SEQ ID NO:356 (human); experiment: SEC, then LC/MS of the antibody-bound peak
[19] = molecular target: clipped form of Sumo-huBCMA, SEQ ID NO:357 (human); experiment: SEC, then LC/MS of the antibody-bound peak
[20] = molecular target: clipped form of Sumo-huBCMA, SEQ ID NO:358 (human); experiment: SEC, then LC/MS of the antibody-bound peak
[21] = molecular target: rhuBCMA fusion protein (6xHis::Sumo::huBCMA(aa 5-51)::GGS::G3::Avi) (human); experiment: SEC, then LC/MS of the antibody-bound peak
[22] = molecular target: cynomolgus (Macaca fascicularis) BCMA on cells (cynomolgus (Macaca fascicularis)); experiment: FACS on cynomolgus BCMA transfected 293T cells
[23] = molecular target: cynomolgus (Macaca fascicularis) BCMA on cells (cynomolgus (Macaca fascicularis)); experiment: FACS on 293T cells transiently transfected with cynomolgus BCMA
[24] = molecular target: clipped form of Sumo-huBCMA, SEQ ID NO:354 (human); experiment: LC/MS (ESI-TOF, deconvoluted mass) of the reduced SEC fraction of 29C12 + sumoBCMA [lower panel]
[25] = molecular target: clipped form of Sumo-huBCMA, SEQ ID NO:356 (human); experiment: as above
[26] = molecular target: clipped form of Sumo-huBCMA, SEQ ID NO:357 (human); experiment: as above
[27] = molecular target: clipped form of Sumo-huBCMA, SEQ ID NO:358 (human); experiment: as above
[28] = molecular target: rhuBCMA fusion protein (6xHis::Sumo::huBCMA(aa 5-51)::GGS::G3::Avi) (human); experiment: as above
[29] = molecular target: rhuBCMA fusion protein (6xHis::Sumo::huBCMA(aa 5-51)::GGS::G3::Avi) (human); experiment: size exclusion chromatography (S200, PBS), UV trace in mAU against ml; 500 ug antibody incubated with 500 ug Sumo-BCMA

Measured: binding

B1: 29C12 (antibody, V domains shown)
VH: EVQLLESGGALVQPGGSLRLSCAASGFTFSSYAMNWVRQAPGKGLEWVSAISVGGDTYYADSVKGRFTISRDNSKNTLYLQMNSLRAEDTAVYYCAKDQVTMVRGVWYYYGLDVWGQGTTVTVSS
VL: DIVMIQSPLSLPVTPGEPASISCRSSQSLLHSNGNNYLDWYLQKPGQSPHLLISLGSNRTSGVPDRFSGSGSGTDFTLKISRVEAEDVGVYYCMQALQPPRRFGQGTKLEIKR
binds: all assays above

B2: 32B5 (antibody, V domains shown)
VH: EVQLLESGGALVQPGGSLRLSCAASGFTFSSYAMNWVRQAPGKGLEWVSAISVGGDTYYADSVKGRFTISRDNSKNTLYLHVNSLSAEDSAVYYCAKDQVTLVRGVWYYYGLDVWGQGTTVTVSS
VL: VIVLIQSPLSLPVTPGEPASISCRSSQSLLHSNGNNYLDWYLQKPGQSPHLLISLGSNRTSGVPDRFSGSGSGTDFTLKISRVEAEDVGFYYCMQALQPPRRFGQGTKLEIKR
binds: [1] | [10] | [11] | [16] | [22] | [23]
